# Among all 400,000 compounds or so, about 5,500 (1.4%) were called active. Inconclusive results, whose numbers are uncertain, are shown with a selection of clear calls. Calls follow the shape of the dose curve; as a rule, active = well fitted cell-killing curve with a large enough effect; inconclusive = small, poorly fitted or top-dose-only effect, or effect the other way; inactive = flat fitted curve, though single readings scatter. Potencies of inconclusive entries are doubtful fits and often do not repeat.
# Experiment: qHTS assay for MDR1-selective chemotherapeutics: Primary screen using the parental adenocarcinoma cell KB-3-1; also: nearly all actives have a fitted effect of over 60% in size
# Conditions: KB-3-1 viability, CellTiter-Glo ATP luminescence, 72 h; activity change, negative = cytotoxic: at 46.1 µM (top of the series)
# Method in brief: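 Parental KB-3-1 adenocarcinoma cells in phenol-red-free DMEM with 10% FBS were pin-treated with compounds at several concentrations, incubated 72 h at 37 °C, and viability read by CellTiter-Glo luminescence; concentration-effect curves were fitted after normalization.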
# % is scaled to controls: 0 for no effect and ±100 for the full control effect; potency is read from the fitted curve at half-maximal effect.
Compound,"activity change, negative = cytotoxic",Potency
COc1ccc(/C=C/c2c(-c3ccc(OC)cc3)oc3ccccc23)cc1,inactive: -8.14%,–
CS(=O)(=O)Nc1cccc(NC(=O)c2cccc3c(-c4cccnc4)coc23)c1,inactive: -4.45%,–
CCOc1ncccc1C(=O)N1CCN(c2cc(Cl)ccc2C)CC1,–,active: 2.06 µM
COc1ccc(CCNC(=O)N2c3ccccc3Sc3ccccc32)cc1,–,"inconclusive: 29.1 µM [cytotoxic, single point]"
O=c1cnn([C@@H]2O[C@H](CO)[C@@H](O)[C@H]2O)c(=O)[nH]1,–,"inconclusive: 25.9 µM [cytotoxic, single point]"
O=c1ccc2cc3c4c(c2o1)CCCN4CCC3,–,"inconclusive: 20.6 µM [cytotoxic, single point]"
CCc1noc(C)c1C(=O)Nc1nc2ccc(S(C)(=O)=O)cc2s1,inactive: 0%,–
COc1cccc(Cn2cnc(-c3ccccc3OC)c2-c2cccs2)c1,–,"inconclusive: 29.1 µM [cytotoxic, single point]"
S=C(Nc1ccc(Nc2ccccc2)cc1)Nc1ccccn1,–,"inconclusive: 29.1 µM [cytotoxic, single point]"
N#Cc1c(-c2ccc(F)cc2)c(-c2ccc(F)cc2)nn(CCO)c1=O,–,active: 3.66 µM
CCCCCn1c(N2CCN(c3cccc(Cl)c3)CC2)nc2c1c(=O)[nH]c(=O)n2C,–,"inconclusive: 29.1 µM [cytotoxic, single point]"
CC1CCCCC1NC(=O)c1cccc(S(=O)(=O)N2CCN(C)CC2)c1 (stereo unspecified),–,"inconclusive: 29.1 µM [rising, partial curve, poor fit]"
COC(=O)C1=C(O)C(C(=O)OC)C(c2ccc(C)cc2)C(C#N)(C#N)C1c1ccc(C)cc1 (stereo unspecified),–,active: 7.31 µM
CCOc1ccccc1N1CCN(C(=O)c2ccccc2SCC(=O)N2CCCC2)CC1,inactive: -1.62%,–
Cc1cc(C)cc(N2CCCn3c2nc2c3c(=O)n(CC(=O)OCc3ccccc3)c(=O)n2C)c1,–,"inconclusive: 20.6 µM [cytotoxic, single point]"
Cc1nc2cc(-c3ccccc3)nn2c(N)c1-c1ccccc1,inactive: 0.362%,–
Cc1cccc(CNC(=O)Cn2ccc3cc(S(=O)(=O)N4CCCCCC4)ccc32)c1,–,"inconclusive: 9.2 µM [cytotoxic, partial curve, poor fit]"
Cc1ccc(NC(=O)C(=O)C2C(=O)Nc3ccccc32)cc1 (stereo unspecified),inactive: 3.62%,–
CSc1ccc(CN2CCC2(C)C(=O)NC2CCN(Cc3ccccc3)CC2)cc1 (stereo unspecified),inactive: 0%,–
O=C(NCCc1ccc(Cl)cc1)c1cc(S(=O)(=O)N2CCCCC2)c[nH]1,–,"inconclusive: 29.1 µM [cytotoxic, single point]"
CN(C)C(CNC(=O)c1cc(S(=O)(=O)N(C)c2ccccc2)ccc1Cl)c1ccccc1 (stereo unspecified),–,"inconclusive: 23.1 µM [cytotoxic, partial curve, poor fit]"
O=c1[nH]c2c(-c3nc(-c4ccc(F)cc4)cs3)c(O)cn2c2ccc(Br)cc12,inactive: -34.1%,–
COc1cc(/C=C2\CCCc3c2nc2ccccc2c3C(=O)O)cc(Br)c1O,inactive: 2.22%,–
Cc1ccc(OCC(=O)c2cc(C)n(Cc3cccs3)c2C)c([N+](=O)[O-])n1,–,"inconclusive: 5.17 µM [cytotoxic, partial curve, poor fit]"

# Ordered by SMILES length (smallest number first): some entries from above
Compound,"activity change, negative = cytotoxic",Potency
O=c1ccc2cc3c4c(c2o1)CCCN4CCC3,–,"inconclusive: 20.6 µM [cytotoxic, single point]"
CCc1noc(C)c1C(=O)Nc1nc2ccc(S(C)(=O)=O)cc2s1,inactive: 0%,–
CCOc1ccccc1N1CCN(C(=O)c2ccccc2SCC(=O)N2CCCC2)CC1,inactive: -1.62%,–
Cc1cc(C)cc(N2CCCn3c2nc2c3c(=O)n(CC(=O)OCc3ccccc3)c(=O)n2C)c1,–,"inconclusive: 20.6 µM [cytotoxic, single point]"

# Continuation.

Compound,"activity change, negative = cytotoxic",Potency
CC(C)Cn1c(N)c(C(=O)COC(=O)c2cc(C3CC3)nc3ccccc23)c(=O)n(C)c1=O,–,"inconclusive: 16.4 µM [cytotoxic, single point]"
Cc1cc2c(cc1S(=O)(=O)N1CCOCC1)NC(=O)CO2,inactive: 35.5%,–
CC(C)(C)c1nnc(NS(=O)(=O)c2ccc([N+](=O)[O-])cc2)s1,inactive: -2.64%,–
CN(C)c1nc2c(c(=O)[nH]c(=O)n2C)n1CCCc1ccccc1,inconclusive: -80.7%,–
CCN1C(=O)N[C@@H](c2cccc(C(F)(F)F)c2)C(C(=O)OC)=C1C,inactive: 3.36%,–
Cc1ccccc1N1C(=O)c2sc3nc4c(c(=O)n3c2C1=O)CCC4,–,"inconclusive: 29.1 µM [cytotoxic, single point]"
Cc1nc2c(OCc3ccc(Cl)cc3Cl)cccn2c1N(C)Cc1cccs1,–,"inconclusive: 29.1 µM [cytotoxic, single point]"
CCCN(CC(=O)Nc1ccccc1C)C(=O)c1ccc(C2SCCS2)cc1,–,"inconclusive: 25.9 µM [cytotoxic, single point]"
CCCn1c(NC(=O)c2cccc(S(=O)(=O)N3CCCC3)c2)nc2ccccc21,–,active: 16.4 µM
COc1ccccc1N1CCN(c2ncnc3n[nH]c(Br)c23)CC1,–,"inconclusive: 20.6 µM [cytotoxic, single point]"
O=C(c1cccs1)N(Cc1nc2sc3c(c2c(=O)[nH]1)CCCC3)C1CCCC1,–,"inconclusive: 6.51 µM [cytotoxic, partial curve]"
COc1c(C)cc(C(O)c2ncc(-c3cccc4ccccc34)[nH]2)cc1C (stereo unspecified),–,"inconclusive: 29.1 µM [cytotoxic, single point]"
O=C1CN(C(=O)COc2ccc(Cl)cc2Cl)C(c2ccccc2)c2cc(F)ccc2N1 (stereo unspecified),–,"inconclusive: 25.9 µM [cytotoxic, single point]"
CN(C)CCNC(=O)c1ccc(-c2nn(C)c(=O)c3ccccc23)cc1,–,"inconclusive: 23.1 µM [cytotoxic, single point]"
COC(=O)c1ccc(Oc2cc(C)nc(SC)n2)cc1,–,active: 5.8 µM
COc1cc(C(=O)NNC(=S)NC(=O)c2ccc3c(c2)OCO3)cc(OC)c1OC,–,"inconclusive: 10.3 µM [cytotoxic, single point]"
Cc1ccc(C(c2nnnn2C2CCCCC2)N2CCc3ccccc32)cc1 (stereo unspecified),–,"inconclusive: 7.31 µM [cytotoxic, partial curve, poor fit]"
COc1ccccc1-c1cc(C(=O)NN)[nH]n1,inactive: 11.3%,–
Cc1ccc(Cn2cnc3nc4c(cc3c2=O)CC(C)CC4)cc1 (stereo unspecified),inactive: -13.6%,–
O=C(C1CCC1)N1CCc2cc(S(=O)(=O)Nc3ccc4c(c3)OCO4)ccc21,–,"inconclusive: 35.5 µM [cytotoxic, single point]"
COCCNC(=S)NNc1cccc(C(=O)O)c1,inactive: -4.59%,–
O=c1ccccn1Cc1c(F)cccc1Cl,–,"inconclusive: 32.6 µM [cytotoxic, single point]"
COc1ccc(C(=O)NNC(=S)NC(=O)c2ccc(OC)cc2)cc1,–,"inconclusive: 23.1 µM [cytotoxic, single point]"
Cc1nn(-c2ccccc2)c(N)c1C1(O)C(=O)Nc2ccc([N+](=O)[O-])cc21 (stereo unspecified),inactive: 5.73%,–

# Already shown: entries from further up.
Compound,"activity change, negative = cytotoxic",Potency
O=c1[nH]c2c(-c3nc(-c4ccc(F)cc4)cs3)c(O)cn2c2ccc(Br)cc12,inactive: -34.1%,–
COc1cc(/C=C2\CCCc3c2nc2ccccc2c3C(=O)O)cc(Br)c1O,inactive: 2.22%,–

# Further results

Compound,"activity change, negative = cytotoxic",Potency
COc1ccc(CCNC(=O)Nc2ccc3c(c2)c(=O)n(C)n3Cc2ccc(F)cc2)cc1OC,inactive: -0.0499%,–
NC(=O)CC(NC(=O)c1ccc(Br)cc1)c1ccc(N2CCC(Cc3ccccc3)CC2)c([N+](=O)[O-])c1 (stereo unspecified),–,"inconclusive: 20.6 µM [cytotoxic, single point]"
COc1ccc(C(NC(=O)c2c(F)c(F)c(F)c(F)c2F)c2ccccc2)cc1 (stereo unspecified),–,"inconclusive: 29.1 µM [cytotoxic, single point]"
CCOP(=O)(OCC)c1nc(-c2cccc3ccccc23)oc1N1CCCCC1,–,"inconclusive: 16.4 µM [cytotoxic, single point]"
Cc1[nH]c2ccccc2c1C1=NNC(=Nc2ccc(F)cc2)SC1,–,"inconclusive: 20.6 µM [cytotoxic, single point]"
CC(C)(Oc1ccc(Br)cc1)C(=O)Nc1cc(-c2nc3ccccc3[nH]2)ccc1Cl,–,"inconclusive: 23.1 µM [cytotoxic, single point]"
S=C(c1cn(CCOc2ccccc2)c2ccccc12)N1CCCC1,–,"inconclusive: 22.4 µM [cytotoxic, single point]"
CN1CCN(CC(=O)N2c3ccccc3C(C)(c3ccc(Cl)cc3)CC2(C)C)CC1 (stereo unspecified),–,"inconclusive: 18.4 µM [cytotoxic, single point]"
Cc1ccc(CSCC(=O)Nc2cc(S(=O)(=O)N3CCOCC3)ccc2OC(C)C)cc1,inactive: -17.2%,–
COc1cc(C(C(=O)NC2CCCCC2)N(Cc2cccs2)C(=O)Cc2c[nH]c3ccccc23)cc(OC)c1OC (stereo unspecified),–,"inconclusive: 23.1 µM [cytotoxic, single point]"
CC(C)CNC(=S)Nc1ccc(Oc2ccccc2)cc1,–,active: 20.6 µM
CCOC(=O)c1c(NC(=O)CCC(=O)N(CC)CC)sc2c1CC(C)(C)OC2,inactive: 0%,–
Cc1ccc2c(c1)c1c(n2CC(O)CNC(CO)(CO)CO)CCCC1 (stereo unspecified),inactive: -9.97%,–
Cc1ccc2cc(C3CC(c4ccco4)=NN3S(=O)(=O)c3ccccc3)c(Cl)nc2c1 (stereo unspecified),–,"inconclusive: 16.4 µM [cytotoxic, single point]"
Nc1nonc1-n1nnc(C(=O)N/N=C/c2ccco2)c1CSc1ccc(Cl)cc1,inactive: 3.76%,–
COc1cc(CNCCSc2nnnn2C)cc(Cl)c1OCc1ccccc1,–,"inconclusive: 20.6 µM [cytotoxic, single point]"
Clc1cc2cccnc2c2ncccc12,–,"inconclusive: 29.1 µM [cytotoxic, single point]"
COc1ccc(C2(C(=O)Nc3ccccc3)CCOCC2)cc1,inactive: 1.08%,–
N#CC(C#N)=c1ccc2c(c1)N1C3=C(CCCC3)CC3CCCCC31N=2 (stereo unspecified),–,"inconclusive: 29.1 µM [cytotoxic, single point]"
O=C(CC1(O)C(=O)N(Cc2ccccc2Cl)c2ccccc21)c1ccco1 (stereo unspecified),–,"inconclusive: 29.1 µM [cytotoxic, single point]"
O=C(N/N=C/c1ccccc1O)/C(=C/c1ccccc1)CCO,–,"inconclusive: 18.4 µM [cytotoxic, partial curve]"
O=C(NCc1ccccc1Cl)C1CCN(S(=O)(=O)c2ccc(N3CCCC3=O)cc2)CC1,inactive: 0%,–
Fc1ccccc1N1CCN(c2nccn3nc(-c4ccc(Br)cc4)cc23)CC1,inactive: 14%,–

# Source: PubChem BioAssay AID1347075 (National Center for Advancing Translational Sciences (NCATS), 2019)
